No constants are given. Whether binding was seen depends on the method and setting. Binding seen in cells or lysates may run through a third protein. Some entries that bind do so weakly or less than the wild type.
Key:
[1] = biological target: GFP-Sam68 S388A/S390A (human) (UniProt Q07666); assay: co-IP; HEK293T whole-cell lysates expressing GFP-Sam68 wild type or mutants; IP with anti-GFP, immunoblot for endogenous partners; cells treated or not with NCS 500 ng/mL and collected at different time points
[2] = biological target: GFP-Sam68 wild type (Src-associated in mitosis of 68 KDa protein) (human) (UniProt Q07666); assay: as above

The chains behind the UniProt entries cited, without tags or fusion partners. Where a name states a change or a piece, a line headed by the entry shows the natural chain unless it says otherwise.
UniProt Q07666: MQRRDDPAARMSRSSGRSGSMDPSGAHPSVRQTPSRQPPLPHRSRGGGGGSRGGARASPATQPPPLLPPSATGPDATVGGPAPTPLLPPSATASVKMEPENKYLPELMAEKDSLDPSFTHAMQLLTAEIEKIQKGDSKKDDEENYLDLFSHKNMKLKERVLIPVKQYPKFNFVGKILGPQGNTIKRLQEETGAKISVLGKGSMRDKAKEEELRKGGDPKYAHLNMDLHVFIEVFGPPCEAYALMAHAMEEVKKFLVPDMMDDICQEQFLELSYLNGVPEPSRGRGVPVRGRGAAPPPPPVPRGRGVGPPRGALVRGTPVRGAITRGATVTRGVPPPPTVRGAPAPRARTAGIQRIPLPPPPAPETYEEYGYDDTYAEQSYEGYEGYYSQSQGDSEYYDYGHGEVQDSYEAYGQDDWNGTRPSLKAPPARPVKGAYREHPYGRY
UniProt P09874: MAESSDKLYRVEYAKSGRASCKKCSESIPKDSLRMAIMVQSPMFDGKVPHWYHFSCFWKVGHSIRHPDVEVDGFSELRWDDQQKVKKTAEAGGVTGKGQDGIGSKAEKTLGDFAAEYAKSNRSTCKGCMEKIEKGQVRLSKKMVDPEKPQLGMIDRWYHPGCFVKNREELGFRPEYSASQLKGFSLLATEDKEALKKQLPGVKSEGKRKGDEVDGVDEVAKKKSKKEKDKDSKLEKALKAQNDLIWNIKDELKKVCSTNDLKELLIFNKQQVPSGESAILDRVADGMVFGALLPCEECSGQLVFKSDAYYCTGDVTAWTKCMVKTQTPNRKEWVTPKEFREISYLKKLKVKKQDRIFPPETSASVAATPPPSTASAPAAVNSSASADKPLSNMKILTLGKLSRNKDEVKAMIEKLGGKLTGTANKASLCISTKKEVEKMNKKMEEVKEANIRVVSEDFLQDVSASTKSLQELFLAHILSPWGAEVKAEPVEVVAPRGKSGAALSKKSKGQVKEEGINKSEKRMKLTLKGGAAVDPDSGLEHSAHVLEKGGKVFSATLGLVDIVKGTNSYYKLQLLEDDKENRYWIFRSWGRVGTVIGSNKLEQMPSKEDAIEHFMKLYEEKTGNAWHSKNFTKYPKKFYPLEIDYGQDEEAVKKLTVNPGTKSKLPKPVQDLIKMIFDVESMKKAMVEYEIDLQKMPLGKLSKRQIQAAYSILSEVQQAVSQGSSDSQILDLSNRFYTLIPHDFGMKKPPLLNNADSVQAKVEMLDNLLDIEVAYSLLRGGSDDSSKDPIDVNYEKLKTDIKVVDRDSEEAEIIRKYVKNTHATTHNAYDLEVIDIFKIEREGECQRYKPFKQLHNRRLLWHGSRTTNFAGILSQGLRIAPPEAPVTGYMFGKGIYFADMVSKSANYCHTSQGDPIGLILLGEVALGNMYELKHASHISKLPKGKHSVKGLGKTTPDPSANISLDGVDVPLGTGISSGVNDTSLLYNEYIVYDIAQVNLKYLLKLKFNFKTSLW

endogenous PARP1 (HEK293T cells) (from UniProt P09874 1-1014) (enzyme)
binding [1]: binds | binding [2]: binds

From PMC9405969
